{
  "source": "patent US20150342961A1",
  "about": "“USE OF PROSTAGLANDIN E1 (PGE1) AND MISOPROSTOL FOR TREATING CHRONIC MYELOGENOUS/MYELOID LEUKEMIA (CML)” (priority 2014, published 2015)",
  "key": {"[1]": {"tested_on": "CML", "assay": "Screen of drugs simulating Tcf1 and Lef1 elimination, effect on CML", "text": "In view of the Inventor's discovery, the Inventor set out to screen for drugs that would simulate the effect of eliminating Tcf1 and Lef1 for use in treatment of CML. Inventor experimented with the following drugs which are known to at least partly simulate the effect of eliminating Tcf1 and Lef1: Carbimazole, Cinchonine, Gibberellic acid, Hippeastrine hydrobromide, Dimaprit dihydrochloride, Spaglumic acid, and Vigabatrin. […] Inventor further experimented with Trichostatin A and Vorinostat. […] Inventor thereafter turned to prostaglandins for treating CML."}, "[2]": {"tested_on": "LSCs", "assay": "LSCs from treated primary recipients transplanted into secondary recipients, propagation of CML", "format": "in vivo, mouse", "conditions": "secondary recipients untreated", "experimental": "The CML model was established in the primary recipients as in FIG. 5. The recipients were then treated with Imatinib, PGE1 or Misoprostol alone, or in combination during days 8-21 post-BMT. The LSCs were isolated from the BM of the primary recipients and transplanted into another set of secondary recipients. The ability of LSCs to propagate CML in the secondary recipients were tracked.\nNote that the LSCs were only treated with PGE1 or Misoprostol in the primary recipients for 2 weeks, and none of the secondary recipients were treated.\nCML animals were treated with the solvent dimethyl sulfoxide (DMSO) as a negative control (See FIG. 6)."}},
  "note": "Entries after “also recorded” stand apart in the source; their conditions may differ. For at least one compound, name, drawing or mass did not settle the structure. Some results were stated once for a whole list of compounds, not compound by compound.",
  "data": [
    {"compound": "CC(=O)N[C@@H](CC(=O)N[C@@H](CCC(=O)O)C(=O)O)C(=O)O", "note": "[Spaglumic acid]", "values": [
      {"measurement": "effect on CML", "setting": "[1]", "value": "no effect on CML"}
    ]},
    {"compound": "CCCCC(C)(O)C/C=C/[C@H]1[C@H](O)CC(=O)[C@@H]1CCCCCCC(=O)OC", "note": "(mixture of isomers) [Misoprostol]", "values": [
      {"measurement": "ability of treated LSCs to propagate CML in secondary recipients", "setting": "[2]; two-week treatment in primary recipients", "value": "superior to Imatinib treatment; also recorded: much less efficient in propagating CML"}
    ]},
    {"compound": "CCCCC[C@H](O)/C=C/[C@H]1[C@H](O)CC(=O)[C@@H]1CCCCCCC(=O)O", "note": "[PGE1, Prostaglandin E1]", "values": [
      {"measurement": "day BMT beyond which all secondary recipients survived", "setting": "[2]; LSCs treated in primary recipients days 8-21 post-BMT", "value": "> 60", "unit": "days"}
    ]}
  ]
}
